From doi:10.1101/2022.07.06.498930 come the findings set out here.

No constants are given. Whether binding was seen depends on the method and setting. Binding seen in cells or lysates may run through a third protein. A result given as binding can be weak or reduced; the word gives no strength. Where a sequence is shown, tags or fusion partners need not be part of it.

The test has as its target YFP-LSM1 (Arabidopsis thaliana). The experiment in a line: co-IP.

B1: PAT1 (Protein Associated with Topoisomerase II), HA fusion (protein, UniProt Q0WPK4 1-793)
chain: MDAFGIGSSLNQAPVTQDLKKFGDNSTGNTMFDASQYAFFGNDVVEEVELGGLEEEDEILSFTGIAEDFSFDKEEVGDSRLLSDVDDLASTFSKLNREPDVYSNTGPITDRRSSQNSLAAEWTHGEELPNWYGRQILDSDAIKDDKVWSAQPFSSLDRVEQRIPDRTKLYPEPQRQLHQDHNQQQFSSEPILVPKSSFVSYPPPGSISPDQRLGHPNIPYQSGGPQMGSPNFSPFPNLQPQLPSMHHGSPQHTGNRPQFRPALPLNNLPPAQWMNRQNMHPGDSSGIMNNAMLQQPPHQNGLMPPQMQGSQNRLPHPMQPPLGHMPGMQPQLFNSHLSRSSSSGNYDGMLGFGDLREVRPGSGHGNRQNVRFPQQGFDAGVQRRYPFRSKYMSAGEIENILRMQLVATHSNDPYVDDYYHQACLAKKSAGAKLKHHFCPNHLRDLQQRARSNNEPHAFLQVEALGRVPFSSIRRPRPLLEVDPPNSAKFGNAEHKPTDKPLDQEPMLAARVYIEDGLCLLLEVDDIDRFLEFNQLQDGGHQLKQRRQALLQSLAVSLQLGDPLAKNGQSQSLDDFLFLRVISLPKGRKLLIRYLQLIFPGSDLMRIVCMAIFRHLRSLFGVLSSDPDIIKTTNKLATVINLCIQNMELGPVSTCLAAVSCSSEQAPLRPLGSPVGDGASTVLKSILDRASELIRANNFNNAGIALWRASFNEFFNMLMRYCISKYDSIMQSLQLPPHFATEISEEAAKAIVREMPIELLRSSFPHIDEQQKRILMEFLKRSMLGSQKTEPVLS
With B1, the binding result is “binds”.
